Data from PMC12140318.
These are yes or no findings as the source states them, for the method shown. Binding seen in cells or lysates may run through a third protein. Here binding means that the protein was enriched with, or labelled near, the bait; the list need not be complete.

Chains of the proteins cited; added tags and fusions are not shown. Lines headed by an entry give the natural chain unless they say otherwise; changes in a name come on top.
UniProt P06702: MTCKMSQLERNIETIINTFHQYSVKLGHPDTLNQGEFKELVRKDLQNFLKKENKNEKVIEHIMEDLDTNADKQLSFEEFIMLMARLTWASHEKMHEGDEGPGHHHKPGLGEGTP
UniProt P45973: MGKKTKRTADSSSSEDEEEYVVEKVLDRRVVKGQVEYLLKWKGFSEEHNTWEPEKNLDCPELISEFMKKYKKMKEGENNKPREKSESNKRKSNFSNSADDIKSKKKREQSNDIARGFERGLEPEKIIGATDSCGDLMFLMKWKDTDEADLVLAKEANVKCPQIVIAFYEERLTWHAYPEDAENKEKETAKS

Target: full-length S100A9 in the nucleus (pDC315-3NLS-S100A9-3NLS-3Flag) (human) (UniProt P06702)
Assay: affinity purification with mass spectrometry; 500 µg total protein of hAFs with or without nuclear S100A9 overexpression in IP lysis buffer, Flag antibody-coupled beads overnight at 4 °C, elution with glycine-HCl pH 2.5, trypsin digest, LC-MS/MS (DIA)

Q: With “CBX5 (Chromobox protein homolog 5) (from UniProt P45973 1-191)” as the substance, how does the binding read?
A: The binding was “binds”.
